{"source": "the supplement of paper PMC5355238", "note": "Structures can show the parent of a compound that is named as a salt. The list shows a part of the results. Most values lie at the level of the controls, where differences are scatter.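 Reh, a human leukemia cell line, is read out by flow cytometry as the median γH2AX antibody signal in S-phase cells; the score counts standard deviations from the median difference of each paired plate set. Scores above 2.5 were candidate hits; scores below -2 mark compounds lowering MK1775-induced damage.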", "data": [{"test_system": "Reh", "test": "Z' of S-phase gammaH2AX difference (drug + MK1775 minus drug alone) (Z-score); higher = stronger synergistic S-phase DNA damage with MK1775", "settings": "MK1775 concentration 400 nM; first compound 10 µM; 4 h", "values": [{"compound": "COc1c(C)c2c(c(O)c1C/C=C(\\C)CCC(=O)O)C(=O)OC2", "note": "[Mycophenolic (Mycophenolate)] + C=CCn1c(=O)c2cnc(Nc3ccc(N4CCN(C)CC4)cc3)nc2n1-c1cccc(C(C)(C)O)n1 [MK1775]", "Z' of S-phase gammaH2AX difference (Z-score)": "inactive: 1.39"}, {"compound": "Cc1ccnc(NS(=O)(=O)c2ccc(NC(=O)Nc3ccc(S(=O)(=O)Nc4nccc(C)n4)cc3)cc2)n1", "note": "+ C=CCn1c(=O)c2cnc(Nc3ccc(N4CCN(C)CC4)cc3)nc2n1-c1cccc(C(C)(C)O)n1 [MK1775]", "Z' of S-phase gammaH2AX difference (Z-score)": "inactive: 0.051"}, {"compound": "COc1cc(C(O)CO)ccc1OS(=O)(=O)O", "note": "(stereo unspecified) [MHPG sulfate potassium] + C=CCn1c(=O)c2cnc(Nc3ccc(N4CCN(C)CC4)cc3)nc2n1-c1cccc(C(C)(C)O)n1 [MK1775]", "Z' of S-phase gammaH2AX difference (Z-score)": "inactive: -0.921"}, {"compound": "COC(=O)c1c(C)[nH]c(C)c1C(=O)c1ccccc1Cc1ccccc1", "note": "+ C=CCn1c(=O)c2cnc(Nc3ccc(N4CCN(C)CC4)cc3)nc2n1-c1cccc(C(C)(C)O)n1 [MK1775]", "Z' of S-phase gammaH2AX difference (Z-score)": "inactive: 1.47"}, {"compound": "CCCC1O[C@@H]2C[C@H]3[C@@H]4CCC5=CC(=O)C=C[C@]5(C)[C@H]4[C@@H](O)C[C@]3(C)[C@]2(C(=O)CO)O1", "note": "(stereo partly specified) [Budesonide] + C=CCn1c(=O)c2cnc(Nc3ccc(N4CCN(C)CC4)cc3)nc2n1-c1cccc(C(C)(C)O)n1 [MK1775]", "Z' of S-phase gammaH2AX difference (Z-score)": "inactive: 0.742"}, {"compound": "NCCC1CCCC(CCN)N1", "note": "(stereo unspecified) [MDL 26,630 trihydrochloride] + C=CCn1c(=O)c2cnc(Nc3ccc(N4CCN(C)CC4)cc3)nc2n1-c1cccc(C(C)(C)O)n1 [MK1775]", "Z' of S-phase gammaH2AX difference (Z-score)": "inactive: 1.29"}, {"compound": "CN1[C@@H]2CC[C@H]1CC(OC(=O)c1c[nH]c3ccccc13)C2", "note": "(stereo partly specified) [3-Tropanyl-indole-3-carboxylate hydrochloride] + C=CCn1c(=O)c2cnc(Nc3ccc(N4CCN(C)CC4)cc3)nc2n1-c1cccc(C(C)(C)O)n1 [MK1775]", "Z' of S-phase gammaH2AX difference (Z-score)": "inactive: 0.397"}, {"compound": "CCCCCCCCCCCCCCCCCCOCC(COP(=O)([O-])OCC[N+](C)(C)C)OC", "note": "(stereo unspecified) + C=CCn1c(=O)c2cnc(Nc3ccc(N4CCN(C)CC4)cc3)nc2n1-c1cccc(C(C)(C)O)n1 [MK1775]", "Z' of S-phase gammaH2AX difference (Z-score)": "inactive: 1.56"}, {"compound": "COc1ccc(/C=C\\c2cc(OC)c(OC)c(OC)c2)cc1O", "note": "[Combretastatin A4] + C=CCn1c(=O)c2cnc(Nc3ccc(N4CCN(C)CC4)cc3)nc2n1-c1cccc(C(C)(C)O)n1 [MK1775]", "Z' of S-phase gammaH2AX difference (Z-score)": "inactive: -0.0983"}, {"compound": "O=NN(CCCl)C(=O)NCCCl", "note": "[Carmustine] + C=CCn1c(=O)c2cnc(Nc3ccc(N4CCN(C)CC4)cc3)nc2n1-c1cccc(C(C)(C)O)n1 [MK1775]", "Z' of S-phase gammaH2AX difference (Z-score)": "inactive: 0"}, {"compound": "CCOC(=O)c1ncn2c1CN(C)C(=O)c1cc(F)ccc1-2", "note": "[Flumazenil] + C=CCn1c(=O)c2cnc(Nc3ccc(N4CCN(C)CC4)cc3)nc2n1-c1cccc(C(C)(C)O)n1 [MK1775]", "Z' of S-phase gammaH2AX difference (Z-score)": "inactive: 0.921"}, {"compound": "NCC(O)(CS(=O)(=O)O)c1ccc(Cl)cc1", "note": "(stereo unspecified) [2-Hydroxysaclofen] + C=CCn1c(=O)c2cnc(Nc3ccc(N4CCN(C)CC4)cc3)nc2n1-c1cccc(C(C)(C)O)n1 [MK1775]", "Z' of S-phase gammaH2AX difference (Z-score)": "inactive: -0.18"}, {"compound": "CC[C@H](NC(=O)c1c(C)c(-c2ccccc2)nc2ccccc12)c1ccccc1", "note": "+ C=CCn1c(=O)c2cnc(Nc3ccc(N4CCN(C)CC4)cc3)nc2n1-c1cccc(C(C)(C)O)n1 [MK1775]", "Z' of S-phase gammaH2AX difference (Z-score)": "inactive: 0.281"}, {"compound": "N/C(=N\\C(=O)c1nc(Cl)c(N)nc1N)NCc1ccc(Cl)c(Cl)c1", "note": "[3',4'-Dichlorobenzamil] + C=CCn1c(=O)c2cnc(Nc3ccc(N4CCN(C)CC4)cc3)nc2n1-c1cccc(C(C)(C)O)n1 [MK1775]", "Z' of S-phase gammaH2AX difference (Z-score)": "inactive: 0.265"}, {"compound": "O=C1O/C(=C/Br)CCC1c1cccc2ccccc12", "note": "(stereo unspecified) [Bromoenol lactone] + C=CCn1c(=O)c2cnc(Nc3ccc(N4CCN(C)CC4)cc3)nc2n1-c1cccc(C(C)(C)O)n1 [MK1775]", "Z' of S-phase gammaH2AX difference (Z-score)": "inactive: -0.234"}, {"compound": "CC(C(=O)O)c1cccc(C(=O)c2ccccc2)c1", "note": "(stereo unspecified) [Ketoprofen] + C=CCn1c(=O)c2cnc(Nc3ccc(N4CCN(C)CC4)cc3)nc2n1-c1cccc(C(C)(C)O)n1 [MK1775]", "Z' of S-phase gammaH2AX difference (Z-score)": "inactive: -0.284"}, {"compound": "Nc1nc(N)c2nc(CNc3ccc(C(=O)N[C@@H](CCC(=O)O)C(=O)O)cc3)cnc2n1", "note": "[Aminopterin] + C=CCn1c(=O)c2cnc(Nc3ccc(N4CCN(C)CC4)cc3)nc2n1-c1cccc(C(C)(C)O)n1 [MK1775]", "Z' of S-phase gammaH2AX difference (Z-score)": "active: 6.27"}, {"compound": "NC(CCCP(=O)(O)O)C(=O)O", "note": "(stereo unspecified) [(?)-2-Amino-5-phosphonopentanoic acid] + C=CCn1c(=O)c2cnc(Nc3ccc(N4CCN(C)CC4)cc3)nc2n1-c1cccc(C(C)(C)O)n1 [MK1775]", "Z' of S-phase gammaH2AX difference (Z-score)": "inactive: -0.124"}, {"compound": "O=C(O)C(Cc1c[nH]c2ccccc12)N1C(=O)c2ccccc2C1=O", "note": "(stereo unspecified) + C=CCn1c(=O)c2cnc(Nc3ccc(N4CCN(C)CC4)cc3)nc2n1-c1cccc(C(C)(C)O)n1 [MK1775]", "Z' of S-phase gammaH2AX difference (Z-score)": "inactive: 0.221"}, {"compound": "NCCSSCCN", "note": "[Cystamine dihydrochloride] + C=CCn1c(=O)c2cnc(Nc3ccc(N4CCN(C)CC4)cc3)nc2n1-c1cccc(C(C)(C)O)n1 [MK1775]", "Z' of S-phase gammaH2AX difference (Z-score)": "inactive: -0.307"}, {"compound": "Nc1nc2c(ncn2COCCO)c(=O)[nH]1", "note": "[Acyclovir] + C=CCn1c(=O)c2cnc(Nc3ccc(N4CCN(C)CC4)cc3)nc2n1-c1cccc(C(C)(C)O)n1 [MK1775]", "Z' of S-phase gammaH2AX difference (Z-score)": "inactive: 0.0835"}, {"compound": "CCCCCN(CCCCC)C(=O)C(CCC(=O)O)NC(=O)c1ccc(Cl)c(Cl)c1", "note": "(stereo unspecified) [Lorglumide sodium] + C=CCn1c(=O)c2cnc(Nc3ccc(N4CCN(C)CC4)cc3)nc2n1-c1cccc(C(C)(C)O)n1 [MK1775]", "Z' of S-phase gammaH2AX difference (Z-score)": "inactive: 0.713"}, {"compound": "CC(C)NCC(O)c1ccc(O)c(O)c1", "note": "(stereo not drawn) [S(+)-Isoproterenol (+)-bitartrate] + C=CCn1c(=O)c2cnc(Nc3ccc(N4CCN(C)CC4)cc3)nc2n1-c1cccc(C(C)(C)O)n1 [MK1775]", "Z' of S-phase gammaH2AX difference (Z-score)": "inactive: -0.216"}, {"compound": "CC(C)NCC(O)c1ccc(O)c(O)c1", "note": "(stereo unspecified) [(?)-Isoproterenol hydrochloride] + C=CCn1c(=O)c2cnc(Nc3ccc(N4CCN(C)CC4)cc3)nc2n1-c1cccc(C(C)(C)O)n1 [MK1775]", "Z' of S-phase gammaH2AX difference (Z-score)": "inactive: -0.0753"}, {"compound": "CS(=O)(=O)N1CCN(Cc2cc3nc(-c4cccc5[nH]ncc45)nc(N4CCOCC4)c3s2)CC1", "note": "+ C=CCn1c(=O)c2cnc(Nc3ccc(N4CCN(C)CC4)cc3)nc2n1-c1cccc(C(C)(C)O)n1 [MK1775]", "Z' of S-phase gammaH2AX difference (Z-score)": "inactive: -0.573"}, {"compound": "O=C(CCCCCCC(=O)Nc1ccccc1)NO", "note": "[Vorinostat (SAHA)] + C=CCn1c(=O)c2cnc(Nc3ccc(N4CCN(C)CC4)cc3)nc2n1-c1cccc(C(C)(C)O)n1 [MK1775]", "Z' of S-phase gammaH2AX difference (Z-score)": "inactive: 0.0451"}, {"compound": "Cc1cc(C)c(NC(=O)C[C@H](CC(=O)O)c2cccc3ccccc23)c(C(=O)N2CCC3(CCCC3)CC2)c1", "note": "+ C=CCn1c(=O)c2cnc(Nc3ccc(N4CCN(C)CC4)cc3)nc2n1-c1cccc(C(C)(C)O)n1 [MK1775]", "Z' of S-phase gammaH2AX difference (Z-score)": "inactive: -0.425"}, {"compound": "C[C@]12C[C@H](O)[C@H]3[C@@H](CCC4=CC(=O)CC[C@@]43C)[C@@H]1CC[C@@H]2C(=O)CO", "note": "[Corticosterone] + C=CCn1c(=O)c2cnc(Nc3ccc(N4CCN(C)CC4)cc3)nc2n1-c1cccc(C(C)(C)O)n1 [MK1775]", "Z' of S-phase gammaH2AX difference (Z-score)": "inactive: -0.578"}, {"compound": "COc1ccc(S(=O)(=O)Nc2cccnc2Nc2ccc(O)cc2)cc1", "note": "+ C=CCn1c(=O)c2cnc(Nc3ccc(N4CCN(C)CC4)cc3)nc2n1-c1cccc(C(C)(C)O)n1 [MK1775]", "Z' of S-phase gammaH2AX difference (Z-score)": "inactive: -0.0126"}, {"compound": "COc1ccccc1N1CCN(CCN(C(=O)c2ccc(F)cc2)c2ccccn2)CC1", "note": "[p-MPPF dihydrochloride] + C=CCn1c(=O)c2cnc(Nc3ccc(N4CCN(C)CC4)cc3)nc2n1-c1cccc(C(C)(C)O)n1 [MK1775]", "Z' of S-phase gammaH2AX difference (Z-score)": "inactive: -0.218"}, {"compound": "c1ccc(-c2ccccn2)nc1", "note": "[2,2'-Bipyridyl] + C=CCn1c(=O)c2cnc(Nc3ccc(N4CCN(C)CC4)cc3)nc2n1-c1cccc(C(C)(C)O)n1 [MK1775]", "Z' of S-phase gammaH2AX difference (Z-score)": "inactive: -1"}, {"compound": "O=C(O)c1ccc2c(c1)nc(Nc1cccc(Cl)c1)c1ccncc12", "note": "[cx-4945 (Silmitasertib)] + C=CCn1c(=O)c2cnc(Nc3ccc(N4CCN(C)CC4)cc3)nc2n1-c1cccc(C(C)(C)O)n1 [MK1775]", "Z' of S-phase gammaH2AX difference (Z-score)": "inactive: -0.73"}, {"compound": "Oc1ccc(Cn2cc[nH]c2=S)cc1", "note": "[1-(4-Hydroxybenzyl)imidazole-2-thiol] + C=CCn1c(=O)c2cnc(Nc3ccc(N4CCN(C)CC4)cc3)nc2n1-c1cccc(C(C)(C)O)n1 [MK1775]", "Z' of S-phase gammaH2AX difference (Z-score)": "inactive: -0.265"}, {"compound": "CCN(CC)C(=S)SSC(=S)N(CC)CC", "note": "[Disulfiram (Antabuse)] + C=CCn1c(=O)c2cnc(Nc3ccc(N4CCN(C)CC4)cc3)nc2n1-c1cccc(C(C)(C)O)n1 [MK1775]", "Z' of S-phase gammaH2AX difference (Z-score)": "inactive: -0.123"}, {"compound": "C=C[C@@]1(C)CC(=O)[C@]2(O)[C@@]3(C)[C@@H](O)CCC(C)(C)[C@@H]3[C@H](O)[C@H](OC(C)=O)[C@@]2(C)O1", "note": "[Forskolin] + C=CCn1c(=O)c2cnc(Nc3ccc(N4CCN(C)CC4)cc3)nc2n1-c1cccc(C(C)(C)O)n1 [MK1775]", "Z' of S-phase gammaH2AX difference (Z-score)": "inactive: -0.702"}, {"compound": "COc1cc2/c(=N/c3ccc(Br)cc3F)nc[nH]c2cc1OCC1CCN(C)CC1", "note": "[Vandetanib (Zactima)] + C=CCn1c(=O)c2cnc(Nc3ccc(N4CCN(C)CC4)cc3)nc2n1-c1cccc(C(C)(C)O)n1 [MK1775]", "Z' of S-phase gammaH2AX difference (Z-score)": "inactive: -0.336"}]}]}
